{"source": "PubChem BioAssay AID2685", "about": "(National Center for Advancing Translational Sciences (NCATS), 2010)", "test": "qHTS Assay for Lipid Storage Modulators in Drosophila S3 Cells;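 as to cell number change: cells counted by Cell Tracker Red CMTPX staining in the red channel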", "conditions": "BODIPY lipid droplet fluorescence, 18-24 h; for cell number change: measured here: cell count max response, cells fed with added oleic acid", "how_it_was_run": "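Drosophila S3 cells loaded with oleic acid (400 uM, as added) and compounds at several concentrations; lipid droplets imaged by 488-nm laser-scanning cytometry, 500–530 nm intensity and object ratio to cell channel. Percent activity normalized to 20 uM Triacsin C.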", "key": {"[1]": {"conditions": "measured here: cell number channel AC50, cells fed with added oleic acid"}, "[2]": {"conditions": "measured here: lipid fluorescence (Fed channel) AC50, cells fed with added oleic acid"}}, "note": "The other results are listed elsewhere or left out. The main result of the screen is listed elsewhere. These columns were measured beside it and carry no call. Most of these compounds were active or inconclusive in the main read-out, so they are no random draw. Potencies come from curve fits of mixed quality, noted in brackets.", "data": [{"smiles": "CC1CN(C(=O)CCC(=O)NCCCN2CCN(Cc3ccccc3)CC2)c2cc(Cl)ccc2O1", "note": "(configuration not stated)", "values": [{"measurement": "cell number change", "value": 60.8, "unit": "%"}, {"measurement": "AC50", "setting": "[1]", "value": "29.1 µM [rising, single point]"}]}, {"smiles": "Cc1nc(Cl)sc1C(=O)NC(C)c1ccc(Cl)cc1", "note": "(configuration not stated)", "values": [{"measurement": "cell number change", "value": -6.84, "unit": "%"}, {"measurement": "AC50", "setting": "[2]", "value": "29.1 µM [falling, partial curve, poor fit]"}]}, {"smiles": "COc1ccc2c(c1)C(=O)C(=O)N2CC1COc2ccccc2O1", "note": "(configuration not stated)", "values": [{"measurement": "cell number change", "value": -19.9, "unit": "%"}, {"measurement": "AC50", "setting": "[2]", "value": "29.1 µM [falling, single point]"}]}, {"smiles": "CSc1cccc(NC(=O)COc2cccc3ccccc23)c1", "values": [{"measurement": "AC50", "setting": "[2]", "value": "6.51 µM [rising, single point]"}]}, {"smiles": "CC(=O)CCc1ccc(OCC(O)CNCCOc2ccc(C)cc2)cc1", "note": "(configuration not stated)", "values": [{"measurement": "cell number change", "value": 19.8, "unit": "%"}, {"measurement": "AC50", "setting": "[2]", "value": "29.1 µM [rising, single point]"}]}, {"smiles": "Cc1cccc(OCC(=O)N2CCCc3ccccc32)c1", "values": [{"measurement": "cell number change", "value": 30.7, "unit": "%"}, {"measurement": "AC50", "setting": "[1]", "value": "10.3 µM [rising, single point]"}, {"measurement": "AC50", "setting": "[2]", "value": "0.00461 µM [falling, full curve, poor fit]"}]}, {"smiles": "O=C(CCn1c(=S)[nH]c2ccccc2c1=O)N1CCCCC1", "values": [{"measurement": "cell number change", "value": -62.4, "unit": "%"}, {"measurement": "AC50", "setting": "[1]", "value": "18.4 µM [falling, single point]"}, {"measurement": "AC50", "setting": "[2]", "value": "7.31 µM [falling, partial curve]"}]}, {"smiles": "Cc1c(Cl)cccc1NC(=S)NCc1cccs1", "values": [{"measurement": "AC50", "setting": "[1]", "value": "0.731 µM [falling, single point]"}]}, {"smiles": "CC(=O)C1C(=O)c2c(cccc2[N+](=O)[O-])C1=Nc1ccccc1C", "note": "(configuration not stated)", "values": [{"measurement": "cell number change", "value": -18.5, "unit": "%"}, {"measurement": "AC50", "setting": "[1]", "value": "4.11 µM [rising, partial curve]"}, {"measurement": "AC50", "setting": "[2]", "value": "3.26 µM [rising, partial curve]"}]}, {"smiles": "CN(C)S(=O)(=O)c1ccc(NC(=O)CN2CCN(c3ccccn3)CC2)cc1", "values": [{"measurement": "cell number change", "value": -5.67, "unit": "%"}, {"measurement": "AC50", "setting": "[2]", "value": "0.13 µM [rising, full curve, poor fit]"}]}, {"smiles": "N#Cc1ccc(/C=C2\\CCCCn3c2nc2cc(C(=O)O)ccc2c3=O)cc1", "values": [{"measurement": "cell number change", "value": 3.95, "unit": "%"}, {"measurement": "AC50", "setting": "[2]", "value": "1.12 µM [rising, partial curve]"}]}, {"smiles": "CN(C)CCNc1nc2sc3c(c2c(=O)n1-c1ccccc1)CCCCC3", "values": [{"measurement": "cell number change", "value": 17.3, "unit": "%"}, {"measurement": "AC50", "setting": "[1]", "value": "0.517 µM [falling, full curve, poor fit]"}]}, {"smiles": "O=c1c2ccccc2c(=O)n(Cc2ccccc2)n1Cc1ccccc1", "values": [{"measurement": "cell number change", "value": -2.2, "unit": "%"}, {"measurement": "AC50", "setting": "[2]", "value": "3.26 µM [rising, partial curve]"}]}, {"smiles": "CCn1c(SCC(=O)Nc2nc(C)cs2)nnc1-c1ccncc1", "values": [{"measurement": "cell number change", "value": 28.2, "unit": "%"}, {"measurement": "AC50", "setting": "[2]", "value": "4.11 µM [rising, partial curve, poor fit]"}]}, {"smiles": "Cc1cc(=O)oc2cc(OCC(=O)Nc3ccccc3C(=O)O)ccc12", "values": [{"measurement": "cell number change", "value": 7.69, "unit": "%"}]}, {"smiles": "COc1ccc(NC(=O)c2cccc3cccnc23)cc1S(N)(=O)=O", "values": [{"measurement": "cell number change", "value": 193, "unit": "%"}, {"measurement": "AC50", "setting": "[1]", "value": "18.4 µM [rising, single point]"}]}, {"smiles": "COC(=O)c1cc2occc2n1Cc1c(F)cccc1Cl", "values": [{"measurement": "cell number change", "value": -17.7, "unit": "%"}]}, {"smiles": "Cc1ccc(NC2SC(=O)N(Cc3cccc(C(=O)O)c3)C2=O)cc1", "note": "(configuration not stated)", "values": [{"measurement": "cell number change", "value": -4.17, "unit": "%"}, {"measurement": "AC50", "setting": "[2]", "value": "10.3 µM [falling, partial curve]"}]}, {"smiles": "CCCn1c(SCC(=O)NC2CCCCC2)nnc1-c1ccco1", "values": [{"measurement": "cell number change", "value": 20, "unit": "%"}, {"measurement": "AC50", "setting": "[2]", "value": "0.164 µM [falling, full curve, poor fit]"}]}, {"smiles": "O=C(CSc1nnnn1-c1ccccc1)NC(=O)NCc1ccco1", "values": [{"measurement": "cell number change", "value": 110, "unit": "%"}, {"measurement": "AC50", "setting": "[1]", "value": "20.6 µM [rising, single point]"}]}, {"smiles": "O=c1c2c(nc3cc(-c4ccc(Cl)cc4)[nH]n13)CCS2", "values": [{"measurement": "AC50", "setting": "[2]", "value": "2.31 µM [rising, single point]"}]}, {"smiles": "Cc1ccc(-c2c3c(=O)n(C)c(=O)n(C)c3cn2-n2cnnc2)cc1", "values": [{"measurement": "cell number change", "value": -22, "unit": "%"}, {"measurement": "AC50", "setting": "[2]", "value": "25.9 µM [falling, single point]"}]}, {"smiles": "NNC(=O)C1CC(O)CN1S(=O)(=O)c1ccc2ccccc2c1", "note": "(configuration not stated)", "values": [{"measurement": "cell number change", "value": 7.91, "unit": "%"}, {"measurement": "AC50", "setting": "[2]", "value": "1.3 µM [rising, full curve]"}]}, {"smiles": "CCOc1ccc(OCCC(=O)OCC(=O)N2CCN(c3ccc(OC)cc3)CC2)cc1", "values": [{"measurement": "cell number change", "value": -5, "unit": "%"}]}, {"smiles": "Cc1c(Cl)c(=O)n2c(=O)c(Cl)c(C)n12", "values": [{"measurement": "cell number change", "value": -25.2, "unit": "%"}, {"measurement": "AC50", "setting": "[1]", "value": "0.146 µM [falling, partial curve, poor fit]"}, {"measurement": "AC50", "setting": "[2]", "value": "0.58 µM [falling, single point]"}]}, {"smiles": "CCOC(=O)Cn1nc(C)c2ccccc2c1=O", "values": [{"measurement": "cell number change", "value": -23.3, "unit": "%"}]}, {"smiles": "Cc1cc(C(=O)CSc2nnc(Nc3ccccc3F)s2)c(C)n1CC1CCCO1", "note": "(configuration not stated)", "values": [{"measurement": "cell number change", "value": 8.56, "unit": "%"}, {"measurement": "AC50", "setting": "[2]", "value": "29.1 µM [falling, single point]"}]}, {"smiles": "O=c1cc(CNc2ccc(Br)cc2)nc2sccn12", "values": [{"measurement": "AC50", "setting": "[2]", "value": "10.3 µM [rising, partial curve, poor fit]"}]}, {"smiles": "CC1(C)CC(=O)C2=C(C1)N(CCN1CCOCC1)C1=C(C(=O)CC(C)(C)C1)C2c1ccc(Cl)c([N+](=O)[O-])c1", "values": [{"measurement": "cell number change", "value": 4.05, "unit": "%"}, {"measurement": "AC50", "setting": "[1]", "value": "0.82 µM [falling, single point]"}, {"measurement": "AC50", "setting": "[2]", "value": "0.13 µM [rising, full curve, poor fit]"}]}, {"smiles": "CC(=O)CSc1nc(N(C)C)nc(N(C)C)n1", "values": [{"measurement": "cell number change", "value": 0.65, "unit": "%"}, {"measurement": "AC50", "setting": "[2]", "value": "0.398 µM [falling, partial curve, poor fit]"}]}]}
